Measured values published in PubChem BioAssay AID504467 (National Center for Advancing Translational Sciences (NCATS), 2011).
Among all 330,000 compounds or so, about 7,700 (2.3%) were called active. Inconclusive results, whose numbers are uncertain, are shown with a selection of clear calls. Calls come from the whole dose curve; as a rule, active = well fitted inhibition curve with a large enough effect; inconclusive = small, poorly fitted or top-dose-only effect, or effect the other way; inactive = flat fitted curve, though single readings scatter. A potency beside an inconclusive call is a rough fit, not a confirmed value.
Potency is the fitted concentration of half-maximal effect.

Experiment: qHTS screen for small molecules that inhibit ELG1-dependent DNA repair in human embryonic kidney (HEK293T) cells expressing luciferase-tagged ELG1; note: nearly all actives have a fitted effect of over 55% in size
Details: HEK293T ELG1-luciferase reporter, luminescence, 16 h, DNA damage induced by 5-fluorouridine; series mostly up to 46.1 µM
How it was run: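 Luminescence from the luciferase reporter, measured 30 min after ONE-Glo reagent at room temperature, was the read-out. Beforehand, 2,000 cells per well were exposed for 16 hr at 37 °C to 5-fluorouridine together with compound or vehicle.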
With `Cc1csc(NC(=S)NC(=O)c2ccccc2)n1` the Potency was inconclusive: 16.4 µM [activator, partial curve].
With `CC1(C)Cc2c(c(N3CCOCC3)nc3sc4c(N5CCOCC5)nnnc4c23)CS1` the Potency was inconclusive: 5.17 µM [inhibitor, single point].
With `Cc1c(C)n(CCc2ccccc2)c2ncnc(NCCCO)c12` the Potency was inconclusive: 2.31 µM [activator, partial curve].
In the case of `CCOC(=O)c1c(N/N=C/c2cccnc2)n[nH]c1C`, the Potency is reported as inconclusive: 29.1 µM [activator, single point].
In the case of `COc1ccc(CN(C)C(=O)c2cc(S(=O)(=O)N3CCOCC3)ccc2N2CCCC2)cc1`, the Potency is reported as “inactive”.
For `O=C(NCCc1c[nH]c2ccccc12)C1CCC(Cn2c(=S)[nH]c3ccccc3c2=O)CC1` (centres undefined), the Potency was inconclusive: 20.6 µM [inhibitor, partial curve, poor fit].
In the case of `O=C(CN(Cc1ccccc1Cl)C(=O)c1csnn1)NCc1ccccc1`, the Potency is reported as “inactive”.
With `CC(=O)Nc1ccc(-c2csc(N/N=C(/C)c3ccccc3)n2)cc1` the Potency was active: 20.6 µM.
In the case of `COC(CNC(=O)c1ccc2nc(-c3ccccc3)c(-c3ccccc3)nc2c1)OC`, the Potency is reported as inconclusive: 29.1 µM [inhibitor, single point].
For `CC(C)Cc1ccc(C(C)C(=O)Nc2ccc(O)cc2)cc1` (centres undefined), the Potency was inconclusive: 14.6 µM [inhibitor, partial curve].
In the case of `Cc1cccc(Cc2cnc(NC(=O)CN3C(=O)/C(=C/c4ccccc4)SC3=S)s2)c1`, the Potency is reported as inconclusive: 18.4 µM [activator, single point].
For `O=C(N/N=C/c1c(Nc2cccc(C(F)(F)F)c2)nc2ccccn2c1=O)c1ccccc1[N+](=O)[O-]`, the Potency was inconclusive: 2.06 µM [inhibitor, full curve].
With `CCc1ccc(C(=O)NNc2ccccc2F)cc1` the Potency was inconclusive: 8.2 µM [inhibitor, partial curve, poor fit].
In the case of `O=C(NCc1ccccn1)C(=O)Nc1nc(C23CC4CC(CC(C4)C2)C3)cs1`, the Potency is reported as “inactive”.
For `CCc1nc(SCc2ccccc2C)n[nH]1`, the Potency was inconclusive: 23.1 µM [activator, single point].
In the case of `COc1ccc(NC(=O)Nc2ccc3nsnc3c2)cc1`, the Potency is reported as inconclusive: 8.2 µM [activator, partial curve].
With `CC(C)(C)c1ccc(/C=C2\Oc3cc(O)ccc3C2=O)cc1` the Potency was inconclusive: 23.1 µM [activator, single point].
With `COc1cc(C(=O)Nc2ccncc2)cc(OC)c1OC` the Potency was inconclusive: 20.6 µM [activator, partial curve, poor fit].
With `Cn1c(=O)c2c(nc(NCCc3ccccc3)n2CC(=O)NCCc2ccccc2)n(C)c1=O` the Potency was “inactive”.
With `CCC(=O)Nc1nnc(-c2cccs2)s1` the Potency was inconclusive: 23.1 µM [activator, partial curve].
For `Oc1ccc(N2CCN(c3nc(-c4cccs4)nc4ccccc34)CC2)cc1`, the Potency was inconclusive: 25.9 µM [inhibitor, partial curve].
For `Cc1cccnc1NC(=O)COc1ccc2c(c1)CCC2`, the Potency was inconclusive: 4.61 µM [activator, partial curve].
In the case of `CCOC(=O)CN(C(=O)COc1nc(-c2ccccc2)cc(C)c1C#N)c1cccc(OC)c1`, the Potency is reported as inconclusive: 29.1 µM [inhibitor, single point].
For `COc1ccccc1C(=O)NC(=S)Nc1ccc(NC(=O)c2ccco2)cc1`, the Potency was “inactive”.
For `COc1ccc([C@H]2CC(=O)C=C(c3ccc4ncccc4c3)C2)cc1OC`, the Potency was inconclusive: 6.51 µM [inhibitor, partial curve].
With `Cc1n[nH]c(=S)n1/N=C/c1ccccc1` the Potency was inconclusive: 6.51 µM [inhibitor, partial curve, poor fit].
In the case of `Cc1nc(NC(=O)C2CCCC2)sc1Cc1ccc2c(c1)OCO2`, the Potency is reported as inconclusive: 14.6 µM [activator, partial curve].
In the case of `CN1C(=O)/C(=C/c2cc3c(cc2Br)OCO3)NC1=S`, the Potency is reported as “inactive”.
With `CCSc1nc(N2CCOCC2)c2c(c1C#N)CCCC2` the Potency was inconclusive: 29.1 µM [inhibitor, partial curve, poor fit].
For `CCCc1nc2ccccc2n1CCOC`, the Potency was inconclusive: 25.9 µM [activator, partial curve, poor fit].
In the case of `Oc1cccc(/C=N\Nc2nncc(-c3ccccc3)n2)c1`, the Potency is reported as inconclusive: 4.61 µM [activator, single point].
For `Cc1ccc(S(=O)(=O)/N=C(\CN2CCOCC2)N2CCCC2)cc1`, the Potency was “inactive”.
For `Cn1c(/C=C/c2cccc([N+](=O)[O-])c2)nc2ccccc2c1=O`, the Potency was “inactive”.
In the case of `CCN(CC)CCNC(=O)c1sc2nc(-c3ccccc3)cn2c1C`, the Potency is reported as inconclusive: 23.1 µM [activator, single point].
In the case of `CCn1c(SCC(=O)Nc2ccc3c(c2)c2ccccc2n3CC)nnc1-c1ccco1`, the Potency is reported as inconclusive: 29.1 µM [inhibitor, single point].
With `COc1ccccc1C(CCNS(=O)(=O)c1ccc(C)cc1)c1ccco1` (centres undefined) the Potency was inconclusive: 18.4 µM [inhibitor, single point].
For `C(=N\Nc1nc2ccccc2[nH]1)/c1ccc2ncccc2c1`, the Potency was inconclusive: 6.51 µM [inhibitor, single point].
For `Cc1ccc(C(=O)Nc2nc3ccc(S(C)(=O)=O)cc3s2)cc1C`, the Potency was “inactive”.
With `Cc1cc(C(=O)COC(=O)C2=COCCO2)c(C)n1-c1ccccc1` the Potency was inconclusive: 0.184 µM [activator, partial curve].
In the case of `CC(C)(C)c1cc(S(=O)(=O)CCc2ccccn2)cc(C(C)(C)C)c1F`, the Potency is reported as “inactive”.
In the case of `CCOc1cc(/C=N/Nc2cccc(C(=O)O)c2)ccc1OCC(=O)N1CCCCC1`, the Potency is reported as inconclusive: 23.1 µM [activator, partial curve].
In the case of `On1onc2c3cc(-c4ccccc4)nc3ccc21`, the Potency is reported as inconclusive: 18.4 µM [inhibitor, single point].
For `CN(CCc1cn[nH]c1)Cc1nc(C(c2ccccc2)c2ccccc2)no1`, the Potency was “inactive”.
For `Cc1cc(C)n(/N=C/c2ccc(C(C)C)cc2)c(=O)c1C#N`, the Potency was inconclusive: 29.1 µM [inhibitor, single point].
